These are yes or no findings as the source states them, for the method shown. Binding can be weak; no strength is given.
Biological target: Myeloperoxidase (human)
Assay: crystal structure; Cp and Mpo pre-mixed (1:1) before crystallization; MPD Suite screen; space group P6(5)22; 4.7 Å resolution; molecular replacement, rigid body refinement; both purified

B1: Human ceruloplasmin (protein, UniProt P00450 20-1065)
chain: KEKHYYIGIIETTWDYASDHGEKKLISVDTEHSNIYLQNGPDRIGRLYKKALYLQYTDETFRTTIEKPVWLGFLGPIIKAETGDKVYVHLKNLASRPYTFHSHGITYYKEHEGAIYPDNTTDFQRADDKVYPGEQYTYMLLATEEQSPGEGDGNCVTRIYHSHIDAPKDIASGLIGPLIICKKDSLDKEKEKHIDREFVVMFSVVDENFSWYLEDNIKTYCSEPEKVDKDNEDFQESNRMYSVNGYTFGSLPGLSMCAEDRVKWYLFGMGNEVDVHAAFFHGQALTNKNYRIDTINLFPATLFDAYMVAQNPGEWMLSCQNLNHLKAGLQAFFQVQECNKSSSKDNIRGKHVRHYYIAAEEIIWNYAPSGIDIFTKENLTAPGSDSAVFFEQGTTRIGGSYKKLVYREYTDASFTNRKERGPEEEHLGILGPVIWAEVGDTIRVTFHNKGAYPLSIEPIGVRFNKNNEGTYYSPNYNPQSRSVPPSASHVAPTETFTYEWTVPKEVGPTNADPVCLAKMYYSAVEPTKDIFTGLIGPMKICKKGSLHANGRQKDVDKEFYLFPTVFDENESLLLEDNIRMFTTAPDQVDKEDEDFQESNKMHSMNGFMYGNQPGLTMCKGDSVVWYLFSAGNEADVHGIYFSGNTYLWRGERRDTANLFPQTSLTLHMWPDTEGTFNVECLTTDHYTGGMKQKYTVNQCRRQSEDSTFYLGERTYYIAAVEVEWDYSPQREWEKELHHLQEQNVSNAFLDKGEFYIGSKYKKVVYRQYTDSTFRVPVERKAEEEHLGILGPQLHADVGDKVKIIFKNMATRPYSIHAHGVQTESSTVTPTLPGETLTYVWKIPERSGAGTEDSACIPWAYYSTVDQVKDLYSGLIGPLIVCRRPYLKVFNPRRKLEFALLFLVFDENESWYLDDNIKTYSDHPEKVNKDDEEFIESNKMHAINGRMFGNLQGLTMHVGDEVNWYLMGMGNEIDLHTVHFHGHSFQYKHRGVYSSDVFDIFPGTYQTLEMFPRTPGIWLLHCHVTDHIHAGMETTYTVLQNEDTKSG
With B1 the binding was “binds”.
